Reference: PubChem BioAssay AID1259254 (NCATS, 2017)
Purpose: 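Gene knock-downs that lead to re-replication, shown by excess G2 DNA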 (primary screen). System: human HCT116 colorectal cancer cells. Knock-down reagent: single siRNA against human genes. Duration: 3 days. Read-out: 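Nuclei stained with Hoechst and imaged; cell-cycle phase assigned by DNA content; G2 share scaled per plate, non-targeting siRNA 0%, GMNN siRNA 100%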. Direction: G2 robust z-score and G2 cells, % of GMNN control: higher = more G2 cells, more excess DNA replication. Hit rule: 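An siRNA counts as active if its G2 robust z-score lies at least 5 MADs above the screen median; here such calls match roughly 38% of GMNN control or more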.
This is one part, drawn at random, of about 59,000 reagents. Of all reagents, about 1,550 (2.6%) got an active call. 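G2 share is only a proxy for re-replication; each gene was hit by three separate siRNAs, and active genes were retested.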 A number with no mark means an inactive call. Reagents against one gene are numbered here. Not all columns of the deposit are shown. Not given: the amount of reagent.

gene symbol,reagent no.,G2 robust z-score,"G2 cells, % of GMNN control"
ZNF431 (zinc finger protein 431),1,-0.493,-0.5
ZNF431 (zinc finger protein 431),2,1.42,13
ZNF431 (zinc finger protein 431),3,-1.02,-4.21
RAPGEF6 (Rap guanine nucleotide exchange factor 6),1,-1.45,-7.22
RAPGEF6 (Rap guanine nucleotide exchange factor 6),2,-0.0885,2.34
RAPGEF6 (Rap guanine nucleotide exchange factor 6),3,-0.904,-3.4
SPON2 (spondin 2),1,-0.843,-2.96
SPON2 (spondin 2),2,1.45,13.2
SPON2 (spondin 2),3,0.245,4.69
CEP78 (centrosomal protein 78),1,-0.963,-3.81
CEP78 (centrosomal protein 78),2,-0.227,1.37
CEP78 (centrosomal protein 78),3,-0.315,0.751
"MAGIX (MAGI family member, X-linked)",1,-0.566,-1.01
"MAGIX (MAGI family member, X-linked)",2,-0.632,-1.48
"MAGIX (MAGI family member, X-linked)",3,-0.749,-2.3
OR1E1 (olfactory receptor family 1 subfamily E member 1),1,0.516,6.6
OR1E1 (olfactory receptor family 1 subfamily E member 1),2,1.98,16.9
OR1E1 (olfactory receptor family 1 subfamily E member 1),3,5.15 (active),39.2
SKP2 (S-phase kinase associated protein 2),1,-0.132,2.04
SKP2 (S-phase kinase associated protein 2),2,-0.599,-1.24
SKP2 (S-phase kinase associated protein 2),3,-0.834,-2.9
EFNA5 (ephrin A5),1,0.682,7.77
EFNA5 (ephrin A5),2,-0.565,-1.01
EFNA5 (ephrin A5),3,4.76,36.4
PRICKLE4 (prickle planar cell polarity protein 4),1,1.01,10.1
PRICKLE4 (prickle planar cell polarity protein 4),2,0.0709,3.47
PRICKLE4 (prickle planar cell polarity protein 4),3,0.702,7.91
"LARS2 (leucyl-tRNA synthetase 2, mitochondrial)",1,0.727,8.08
"LARS2 (leucyl-tRNA synthetase 2, mitochondrial)",2,-0.901,-3.38
"LARS2 (leucyl-tRNA synthetase 2, mitochondrial)",3,3.87,30.2
ARL1 (ARF like GTPase 1),1,1.32,12.2
ARL1 (ARF like GTPase 1),2,0.35,5.43
ARL1 (ARF like GTPase 1),3,-0.104,2.23
CAPN12 (calpain 12),1,0.832,8.82
CAPN12 (calpain 12),2,-0.308,0.8
CAPN12 (calpain 12),3,0.614,7.29
CD160 (CD160 molecule),1,0.296,5.05
CD160 (CD160 molecule),2,0.02,3.11
CD160 (CD160 molecule),3,0.47,6.27
LIPM (lipase family member M),1,0.288,5
LIPM (lipase family member M),2,-1.04,-4.34
LIPM (lipase family member M),3,1.04,10.3
RPS19 (ribosomal protein S19),1,4.86,37.2
RPS19 (ribosomal protein S19),2,2.09,17.6
RPS19 (ribosomal protein S19),3,5.51 (active),41.7
SLC23A2,1,0.677,7.73
SLC23A2,2,-0.565,-1.01
SLC23A2,3,0.47,6.28
ARL5B (ARF like GTPase 5B),1,-0.781,-2.53
ARL5B (ARF like GTPase 5B),2,-0.79,-2.59
ARL5B (ARF like GTPase 5B),3,-1.2,-5.48
BORCS8-MEF2B (BORCS8-MEF2B readthrough),1,-0.354,0.479
BORCS8-MEF2B (BORCS8-MEF2B readthrough),2,-1.04,-4.37
BORCS8-MEF2B (BORCS8-MEF2B readthrough),3,7.14 (active),53.2
OR51B4 (olfactory receptor family 51 subfamily B member 4),1,0.599,7.19
OR51B4 (olfactory receptor family 51 subfamily B member 4),2,1.75,15.3
OR51B4 (olfactory receptor family 51 subfamily B member 4),3,0.523,6.65
COPS9 (COP9 signalosome subunit 9),1,-0.0131,2.88
COPS9 (COP9 signalosome subunit 9),2,1.41,12.9
COPS9 (COP9 signalosome subunit 9),3,0.731,8.11
DROSHA (drosha ribonuclease III),1,-1.19,-5.37
DROSHA (drosha ribonuclease III),2,2.26,18.9
DROSHA (drosha ribonuclease III),3,-0.401,0.148
NAP1L1 (nucleosome assembly protein 1 like 1),1,-1.12,-4.88
NAP1L1 (nucleosome assembly protein 1 like 1),2,5.11 (active),38.9
NAP1L1 (nucleosome assembly protein 1 like 1),3,-0.893,-3.32
ALS2 (alsin Rho guanine nucleotide exchange factor ALS2),1,-1.09,-4.72
ALS2 (alsin Rho guanine nucleotide exchange factor ALS2),2,-0.462,-0.283
ALS2 (alsin Rho guanine nucleotide exchange factor ALS2),3,-0.32,0.714

Reagents above called active, once more:
gene symbol,reagent no.,G2 robust z-score,"G2 cells, % of GMNN control"
OR1E1 (olfactory receptor family 1 subfamily E member 1),3,5.15 (active),39.2
RPS19 (ribosomal protein S19),3,5.51 (active),41.7
BORCS8-MEF2B (BORCS8-MEF2B readthrough),3,7.14 (active),53.2
NAP1L1 (nucleosome assembly protein 1 like 1),2,5.11 (active),38.9
